Article PMC10476466
Results are given in words; binding and its absence hold for the method and conditions named. Binding seen in cells or lysates may run through a third protein. A yes stands for co-enrichment or nearness to the bait. Other partners may have been found.

By UniProt entry, the sequences of proteins in these tests, tags left out.
UniProt P06748: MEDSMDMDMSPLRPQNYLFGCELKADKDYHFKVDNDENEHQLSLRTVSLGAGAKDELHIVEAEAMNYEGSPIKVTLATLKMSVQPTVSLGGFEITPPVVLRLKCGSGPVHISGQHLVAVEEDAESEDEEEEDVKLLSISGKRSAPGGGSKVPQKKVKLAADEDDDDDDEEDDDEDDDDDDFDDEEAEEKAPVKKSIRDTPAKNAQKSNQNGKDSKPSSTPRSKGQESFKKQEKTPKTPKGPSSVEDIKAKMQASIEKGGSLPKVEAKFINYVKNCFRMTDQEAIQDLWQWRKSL

Biological target: T1, phospholipase D1 (PLD1) (UniProt Q13393)
T1 sequence: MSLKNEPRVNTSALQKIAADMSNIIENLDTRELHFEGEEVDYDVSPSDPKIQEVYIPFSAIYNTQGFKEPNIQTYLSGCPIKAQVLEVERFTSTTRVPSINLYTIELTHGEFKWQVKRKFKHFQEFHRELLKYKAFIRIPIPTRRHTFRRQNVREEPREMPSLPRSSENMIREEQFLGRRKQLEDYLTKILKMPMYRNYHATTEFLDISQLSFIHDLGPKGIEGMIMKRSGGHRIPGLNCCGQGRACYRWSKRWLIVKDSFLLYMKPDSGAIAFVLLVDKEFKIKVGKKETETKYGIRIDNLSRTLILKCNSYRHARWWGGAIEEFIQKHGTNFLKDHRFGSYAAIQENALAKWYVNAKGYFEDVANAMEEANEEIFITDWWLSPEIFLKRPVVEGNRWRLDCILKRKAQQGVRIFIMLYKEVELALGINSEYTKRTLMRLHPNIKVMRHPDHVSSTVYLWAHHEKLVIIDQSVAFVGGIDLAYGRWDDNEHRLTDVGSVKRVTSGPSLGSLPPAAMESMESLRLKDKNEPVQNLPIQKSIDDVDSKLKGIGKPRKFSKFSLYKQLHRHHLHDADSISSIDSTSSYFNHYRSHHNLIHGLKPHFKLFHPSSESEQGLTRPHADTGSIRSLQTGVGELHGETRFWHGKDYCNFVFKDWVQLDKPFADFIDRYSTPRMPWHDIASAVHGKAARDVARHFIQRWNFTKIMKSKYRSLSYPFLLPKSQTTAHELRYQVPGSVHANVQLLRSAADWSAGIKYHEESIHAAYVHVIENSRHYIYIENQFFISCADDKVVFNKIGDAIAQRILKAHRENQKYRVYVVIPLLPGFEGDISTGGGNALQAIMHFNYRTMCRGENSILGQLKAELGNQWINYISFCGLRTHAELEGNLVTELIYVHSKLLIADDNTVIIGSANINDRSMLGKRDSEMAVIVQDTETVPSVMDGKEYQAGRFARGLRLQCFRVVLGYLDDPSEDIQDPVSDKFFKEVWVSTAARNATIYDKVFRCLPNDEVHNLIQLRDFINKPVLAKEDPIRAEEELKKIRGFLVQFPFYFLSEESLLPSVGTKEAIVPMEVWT
Assay: affinity purification with mass spectrometry; intranuclear immunoprecipitation-mass spectrometry (IPMS) of PLD1 in PLD1 overexpression cell lines

## nucleophosmin 1 (NPM1) (from UniProt P06748 1-294)
  binding: binds
